Data taken from the supplement of paper PMC6411743.
± gives the standard deviation of the averaged measurements. The entries are a selection whose mix differs from that of the whole data set. Small differences around the control level are noise.

By UniProt entry, the sequences of proteins in these tests, tags left out. Where a name states a change or a piece, a line headed by the entry shows the natural chain unless it says otherwise.
UniProt O00189: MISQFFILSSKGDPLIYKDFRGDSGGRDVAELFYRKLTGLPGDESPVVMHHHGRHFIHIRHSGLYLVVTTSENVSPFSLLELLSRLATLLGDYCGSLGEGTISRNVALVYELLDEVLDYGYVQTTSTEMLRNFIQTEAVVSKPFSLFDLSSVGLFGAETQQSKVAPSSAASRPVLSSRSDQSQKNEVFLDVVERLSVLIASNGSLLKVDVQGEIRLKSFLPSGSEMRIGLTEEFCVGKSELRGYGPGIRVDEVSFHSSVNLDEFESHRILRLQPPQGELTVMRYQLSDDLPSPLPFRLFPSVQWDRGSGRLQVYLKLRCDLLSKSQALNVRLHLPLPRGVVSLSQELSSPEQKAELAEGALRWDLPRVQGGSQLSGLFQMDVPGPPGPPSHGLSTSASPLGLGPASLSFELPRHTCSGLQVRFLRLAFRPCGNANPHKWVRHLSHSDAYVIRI
UniProt Q8TE99: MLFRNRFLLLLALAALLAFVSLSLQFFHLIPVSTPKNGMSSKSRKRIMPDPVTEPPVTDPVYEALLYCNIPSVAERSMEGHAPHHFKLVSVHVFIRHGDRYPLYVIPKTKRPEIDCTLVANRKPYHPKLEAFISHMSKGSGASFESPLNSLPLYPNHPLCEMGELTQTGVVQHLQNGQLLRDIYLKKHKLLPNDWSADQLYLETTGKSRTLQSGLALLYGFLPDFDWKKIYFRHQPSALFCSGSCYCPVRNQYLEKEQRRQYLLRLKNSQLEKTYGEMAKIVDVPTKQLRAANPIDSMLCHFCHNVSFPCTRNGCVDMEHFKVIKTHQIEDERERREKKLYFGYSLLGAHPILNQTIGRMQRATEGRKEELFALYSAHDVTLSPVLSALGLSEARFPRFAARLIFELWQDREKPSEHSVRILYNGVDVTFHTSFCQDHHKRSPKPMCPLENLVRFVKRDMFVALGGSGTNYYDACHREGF
UniProt Q7Z6J8: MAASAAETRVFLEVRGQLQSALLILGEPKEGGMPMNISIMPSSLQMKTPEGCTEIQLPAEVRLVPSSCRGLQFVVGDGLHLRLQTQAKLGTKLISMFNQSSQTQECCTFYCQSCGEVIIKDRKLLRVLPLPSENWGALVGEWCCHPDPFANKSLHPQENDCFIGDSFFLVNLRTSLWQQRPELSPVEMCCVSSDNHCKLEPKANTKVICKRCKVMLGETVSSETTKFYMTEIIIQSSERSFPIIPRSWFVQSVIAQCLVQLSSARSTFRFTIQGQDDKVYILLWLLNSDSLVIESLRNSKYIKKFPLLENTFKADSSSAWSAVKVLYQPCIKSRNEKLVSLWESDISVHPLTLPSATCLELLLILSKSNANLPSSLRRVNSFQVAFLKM
UniProt A6NDG6: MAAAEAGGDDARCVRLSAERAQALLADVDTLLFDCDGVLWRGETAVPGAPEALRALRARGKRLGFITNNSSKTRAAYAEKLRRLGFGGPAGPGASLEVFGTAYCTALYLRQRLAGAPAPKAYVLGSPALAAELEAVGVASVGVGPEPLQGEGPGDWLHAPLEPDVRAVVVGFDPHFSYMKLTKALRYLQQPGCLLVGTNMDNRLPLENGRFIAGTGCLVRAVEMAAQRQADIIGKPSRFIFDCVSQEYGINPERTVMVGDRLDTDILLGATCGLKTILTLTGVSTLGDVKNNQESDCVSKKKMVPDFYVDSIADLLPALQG
UniProt P31943: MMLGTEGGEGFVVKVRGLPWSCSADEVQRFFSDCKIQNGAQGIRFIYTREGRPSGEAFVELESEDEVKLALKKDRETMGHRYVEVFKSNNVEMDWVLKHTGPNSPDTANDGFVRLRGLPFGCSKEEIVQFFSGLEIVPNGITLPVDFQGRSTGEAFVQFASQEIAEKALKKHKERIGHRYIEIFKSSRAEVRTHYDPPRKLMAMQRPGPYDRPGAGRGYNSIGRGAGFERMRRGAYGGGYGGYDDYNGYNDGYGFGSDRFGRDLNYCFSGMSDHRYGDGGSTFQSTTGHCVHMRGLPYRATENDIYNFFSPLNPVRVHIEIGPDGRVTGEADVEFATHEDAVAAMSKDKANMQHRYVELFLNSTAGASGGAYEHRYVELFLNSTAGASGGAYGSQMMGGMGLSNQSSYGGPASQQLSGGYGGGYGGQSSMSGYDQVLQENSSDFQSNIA
UniProt Q8N3P4: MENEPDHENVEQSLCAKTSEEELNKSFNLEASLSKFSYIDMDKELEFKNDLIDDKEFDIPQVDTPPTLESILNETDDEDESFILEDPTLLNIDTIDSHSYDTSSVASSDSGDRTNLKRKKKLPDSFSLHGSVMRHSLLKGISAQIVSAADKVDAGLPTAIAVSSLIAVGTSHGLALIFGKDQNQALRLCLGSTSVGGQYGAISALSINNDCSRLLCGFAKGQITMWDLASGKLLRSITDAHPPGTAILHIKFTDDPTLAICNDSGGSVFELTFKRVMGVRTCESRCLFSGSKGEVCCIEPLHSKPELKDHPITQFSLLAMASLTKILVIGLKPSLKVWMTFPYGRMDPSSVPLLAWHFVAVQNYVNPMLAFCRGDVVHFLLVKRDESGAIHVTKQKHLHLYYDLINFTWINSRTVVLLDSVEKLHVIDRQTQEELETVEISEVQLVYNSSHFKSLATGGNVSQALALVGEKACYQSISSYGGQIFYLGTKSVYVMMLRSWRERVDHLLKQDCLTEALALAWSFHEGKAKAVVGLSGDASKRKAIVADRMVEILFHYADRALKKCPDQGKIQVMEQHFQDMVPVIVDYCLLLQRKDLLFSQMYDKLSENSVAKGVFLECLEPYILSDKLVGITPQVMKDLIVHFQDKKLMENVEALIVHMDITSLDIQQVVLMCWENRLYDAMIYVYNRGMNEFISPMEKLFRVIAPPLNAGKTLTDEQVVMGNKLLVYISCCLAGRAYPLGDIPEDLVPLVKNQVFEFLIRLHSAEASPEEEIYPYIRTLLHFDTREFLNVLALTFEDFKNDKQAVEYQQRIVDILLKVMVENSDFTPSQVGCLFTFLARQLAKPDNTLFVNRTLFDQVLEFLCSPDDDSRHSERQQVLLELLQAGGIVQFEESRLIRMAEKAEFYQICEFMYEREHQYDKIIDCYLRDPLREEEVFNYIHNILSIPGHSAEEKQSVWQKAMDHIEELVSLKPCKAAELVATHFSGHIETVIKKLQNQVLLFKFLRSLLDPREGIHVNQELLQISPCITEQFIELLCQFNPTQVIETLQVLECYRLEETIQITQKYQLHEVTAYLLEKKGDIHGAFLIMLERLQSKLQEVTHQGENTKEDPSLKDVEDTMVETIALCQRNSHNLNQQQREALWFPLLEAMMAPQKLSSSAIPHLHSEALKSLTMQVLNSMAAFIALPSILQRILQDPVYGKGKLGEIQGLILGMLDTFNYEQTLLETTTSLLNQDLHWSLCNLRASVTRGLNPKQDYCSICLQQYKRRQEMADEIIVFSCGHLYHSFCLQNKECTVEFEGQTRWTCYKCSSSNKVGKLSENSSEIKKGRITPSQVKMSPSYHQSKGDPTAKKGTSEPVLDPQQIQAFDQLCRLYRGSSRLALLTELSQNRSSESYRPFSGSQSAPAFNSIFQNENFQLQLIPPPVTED
UniProt Q9Y6K9, whole entry: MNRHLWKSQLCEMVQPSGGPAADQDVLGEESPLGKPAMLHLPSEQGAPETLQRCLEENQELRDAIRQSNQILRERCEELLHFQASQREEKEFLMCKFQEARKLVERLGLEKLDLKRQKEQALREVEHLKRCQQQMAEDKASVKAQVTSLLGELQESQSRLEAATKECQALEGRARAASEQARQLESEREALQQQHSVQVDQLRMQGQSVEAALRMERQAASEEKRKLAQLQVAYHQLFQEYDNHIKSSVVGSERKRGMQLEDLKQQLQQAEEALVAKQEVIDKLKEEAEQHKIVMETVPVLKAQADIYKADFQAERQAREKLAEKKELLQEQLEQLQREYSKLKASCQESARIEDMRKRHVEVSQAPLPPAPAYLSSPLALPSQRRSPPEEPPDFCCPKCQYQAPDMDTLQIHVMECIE
UniProt A8MWY0: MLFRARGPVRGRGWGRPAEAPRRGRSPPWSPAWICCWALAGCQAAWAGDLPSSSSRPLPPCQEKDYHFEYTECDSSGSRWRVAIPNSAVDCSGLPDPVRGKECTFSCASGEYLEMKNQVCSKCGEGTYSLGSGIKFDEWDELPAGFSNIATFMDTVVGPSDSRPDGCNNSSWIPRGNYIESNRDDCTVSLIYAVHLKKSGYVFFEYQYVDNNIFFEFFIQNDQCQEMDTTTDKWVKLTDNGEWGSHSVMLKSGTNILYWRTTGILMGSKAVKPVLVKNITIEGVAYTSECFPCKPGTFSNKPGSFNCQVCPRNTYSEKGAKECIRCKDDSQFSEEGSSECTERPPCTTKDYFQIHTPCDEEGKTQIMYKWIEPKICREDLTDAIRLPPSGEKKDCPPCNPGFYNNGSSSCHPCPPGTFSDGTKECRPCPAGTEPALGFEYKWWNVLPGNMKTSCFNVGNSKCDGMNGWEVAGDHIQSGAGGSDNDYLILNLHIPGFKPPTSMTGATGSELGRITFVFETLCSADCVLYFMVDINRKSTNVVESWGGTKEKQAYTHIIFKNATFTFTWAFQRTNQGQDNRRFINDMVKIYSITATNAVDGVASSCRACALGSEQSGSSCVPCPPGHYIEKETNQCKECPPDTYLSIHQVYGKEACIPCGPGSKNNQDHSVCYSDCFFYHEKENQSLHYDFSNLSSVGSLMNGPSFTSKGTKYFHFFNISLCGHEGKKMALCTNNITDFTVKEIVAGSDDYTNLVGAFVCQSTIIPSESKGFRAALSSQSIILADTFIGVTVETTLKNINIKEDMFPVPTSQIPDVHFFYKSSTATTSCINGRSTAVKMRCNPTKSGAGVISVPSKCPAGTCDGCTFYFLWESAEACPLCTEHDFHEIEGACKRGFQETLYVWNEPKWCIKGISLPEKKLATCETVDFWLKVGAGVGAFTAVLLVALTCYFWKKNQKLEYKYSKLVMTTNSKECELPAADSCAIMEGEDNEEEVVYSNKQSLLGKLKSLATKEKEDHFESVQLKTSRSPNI
UniProt Q9Y2K5: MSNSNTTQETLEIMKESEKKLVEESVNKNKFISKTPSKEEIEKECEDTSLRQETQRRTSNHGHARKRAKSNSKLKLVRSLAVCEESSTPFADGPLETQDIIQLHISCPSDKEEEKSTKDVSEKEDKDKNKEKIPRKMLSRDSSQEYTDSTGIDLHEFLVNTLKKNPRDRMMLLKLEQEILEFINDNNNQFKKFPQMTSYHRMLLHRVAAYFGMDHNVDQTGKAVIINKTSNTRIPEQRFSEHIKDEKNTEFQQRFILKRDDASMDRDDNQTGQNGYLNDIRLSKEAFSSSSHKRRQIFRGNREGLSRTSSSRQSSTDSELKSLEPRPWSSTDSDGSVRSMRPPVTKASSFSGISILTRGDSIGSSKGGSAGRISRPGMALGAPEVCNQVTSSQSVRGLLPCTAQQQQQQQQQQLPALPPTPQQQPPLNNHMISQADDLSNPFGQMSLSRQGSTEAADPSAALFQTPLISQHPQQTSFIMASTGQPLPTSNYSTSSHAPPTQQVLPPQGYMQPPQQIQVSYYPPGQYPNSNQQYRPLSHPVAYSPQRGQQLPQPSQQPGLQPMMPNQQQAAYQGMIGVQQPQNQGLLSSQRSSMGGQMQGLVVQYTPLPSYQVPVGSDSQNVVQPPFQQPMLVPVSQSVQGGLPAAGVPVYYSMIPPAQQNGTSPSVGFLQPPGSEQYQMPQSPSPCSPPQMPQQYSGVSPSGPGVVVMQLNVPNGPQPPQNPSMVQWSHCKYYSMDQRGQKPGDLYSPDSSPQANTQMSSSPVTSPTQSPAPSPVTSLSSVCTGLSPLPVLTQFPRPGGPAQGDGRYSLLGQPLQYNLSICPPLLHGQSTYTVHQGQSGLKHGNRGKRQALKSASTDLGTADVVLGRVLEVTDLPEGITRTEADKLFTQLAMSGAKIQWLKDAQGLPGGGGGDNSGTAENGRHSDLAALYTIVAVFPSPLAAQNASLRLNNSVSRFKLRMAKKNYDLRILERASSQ
UniProt Q9UKY7: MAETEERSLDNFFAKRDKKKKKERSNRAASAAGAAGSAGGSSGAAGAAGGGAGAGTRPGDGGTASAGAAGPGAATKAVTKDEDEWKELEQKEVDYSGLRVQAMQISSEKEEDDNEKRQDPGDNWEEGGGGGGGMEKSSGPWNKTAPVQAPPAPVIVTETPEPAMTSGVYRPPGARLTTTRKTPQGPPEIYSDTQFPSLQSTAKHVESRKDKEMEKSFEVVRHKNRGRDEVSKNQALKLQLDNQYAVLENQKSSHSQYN
UniProt Q92890: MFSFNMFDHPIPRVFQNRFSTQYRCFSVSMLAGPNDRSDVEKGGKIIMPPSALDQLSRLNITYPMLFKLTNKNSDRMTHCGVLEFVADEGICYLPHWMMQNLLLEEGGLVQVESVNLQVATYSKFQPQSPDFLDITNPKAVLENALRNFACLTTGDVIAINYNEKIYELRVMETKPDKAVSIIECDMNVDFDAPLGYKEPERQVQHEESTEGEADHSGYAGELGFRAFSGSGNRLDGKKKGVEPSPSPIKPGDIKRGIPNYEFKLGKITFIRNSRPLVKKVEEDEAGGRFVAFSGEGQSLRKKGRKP

Compound: Nc1ncnc2c1ncn2[C@@H]1O[C@H](COP(=O)(O)OP(=O)(O)NP(=O)(O)O)[C@@H](O)[C@H]1O [adenylyl imidodiphosphate]
Test: NP40-soluble protein abundance relative to vehicle (solubility fold change) (ratio); higher = more soluble protein in presence of AMP-PNP
Procedure, shortened: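 Eight concentrations, 0.1 to 10 mM, were tested on Jurkat crude lysate for 10 min at room temperature and then 3 min at 37 °C, in three independent experiments. The lysate was solubilised with 0.8% NP40 and benzonase, ultracentrifuged, and the supernatant TMT-labelled for LC-MS/MS. Each value is the fold change against the detergent-processed vehicle in its own replicate, from vsn-normalised intensities.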

Row | Target | NP40-soluble protein abundance (concentration: 0.1mM) | NP40-soluble protein abundance (concentration: 0.5mM)
1 | UniProt A5PLN9 and related entries | 1.01 ± 0.072 | 0.967 ± 0.05
2 | B7ZAX5 and related entries (UniProt Q01415) | 0.9831 ± 0.00067 | 0.975 ± 0.051
3 | C9IZL5 and related entries (UniProt O00189) | 1.01 ± 0.031 | 1 ± 0.071
4 | B4DEN4 and related entries (UniProt Q8WV99) | 0.982 ± 0.04 | 0.981 ± 0.038
5 | B4E0E3 and related entries (UniProt Q9H6X4) | 0.995 ± 0.051 | 0.99 ± 0.048
6 | B7Z3R9 and related entries (UniProt Q8TE99) | 0.955 ± 0.017 | 0.982 ± 0.02
7 | B3KUS5 and related entries (UniProt Q70CQ3) | 0.9756 ± 0.0069 | 0.974 ± 0.022
8 | C9JRJ5 and related entries (UniProt Q9UGP4) | 1.02 ± 0.019 | 1.02 ± 0.065
9 | D3DTX6 and related entries (UniProt Q96SB3) | 1 ± 0.019 | 0.998 ± 0.04
10 | C9JA28 and related entries (UniProt Q9UNL2) | 1.01 ± 0.014 | 1.03 ± 0.063
11 | D6RD24 and related entries (UniProt Q7Z6J8) | 1.02 ± 0.013 | 0.9993 ± 0.0084
12 | B1AQP1 and related entries (UniProt P22415) | 1.03 ± 0.066 | 1.03 ± 0.096
13 | PGP (UniProt A6NDG6) | 1.02 ± 0.023 | 0.982 ± 0.033
14 | E5RGS2 and related entries (UniProt Q9H6H4) | 1.01 ± 0.025 | 1.01 ± 0.026
15 | B5MCN7 and related entries (UniProt Q15788) | 1.01 ± 0.034 | 0.975 ± 0.017
16 | C9JF71 and related entries (UniProt Q8TBF5) | 0.998 ± 0.035 | 1.01 ± 0.018
17 | A8MQ02 and related entries (UniProt P55196) | 0.991 ± 0.011 | 0.975 ± 0.012
18 | B7Z779 and related entries (UniProt Q96A25) | 0.986 ± 0.014 | 1.01 ± 0.044
19 | C9JYN0 and related entries (UniProt Q16563) | 1.04 ± 0.093 | 1.05 ± 0.028
20 | D6RAM1 and related entries (UniProt P31943) | 1.01 ± 0.028 | 0.992 ± 0.049
21 | A8MXF6 and related entries (UniProt Q9UNT1+Q9UBK7+B7ZBD5+A8MXF6) | 0.962 ± 0.014 | 0.979 ± 0.049
22 | B4DH95 and related entries (UniProt Q6P9H5) | 1.03 ± 0.03 | 1.01 ± 0.06

Row | Target | NP40-soluble protein abundance (concentration: 0.1mM) | NP40-soluble protein abundance (concentration: 0.5mM)
23 | C9JJN9 and related entries (UniProt Q8N3P4) | 1.05 ± 0.056 | 1 ± 0.049
24 | D6RA71 and related entries (UniProt P78317) | 0.994 ± 0.012 | 0.997 ± 0.038
25 | C9J3D7 and related entries (UniProt Q9UKG9) | 0.985 ± 0.069 | 0.954 ± 0.07
26 | C9J2V2 and related entries (UniProt Q9Y6K9) | 1 ± 0.042 | 1 ± 0.056
27 | UniProt A8MWY0 and related entries | 1.04 ± 0.044 | 0.987 ± 0.012
28 | C9J4Z3 and related entries (UniProt P61513) | 1.02 ± 0.0097 | 1.03 ± 0.028
29 | B5MCU0 (UniProt Q9Y2K5) | 0.9864 ± 0.0045 | 0.987 ± 0.016
30 | E2QRD4 and related entries (UniProt Q6ZRQ5) | 1.01 ± 0.037 | 0.988 ± 0.019
31 | D6R9V8 and related entries (UniProt Q9UKY7) | 0.954 ± 0.015 | 1.01 ± 0.076
32 | B4DTY2 and related entries (UniProt O15304) | 0.987 ± 0.067 | 0.986 ± 0.03
33 | C9JCW7 and related entries (UniProt Q9BVT8) | 0.979 ± 0.032 | 0.995 ± 0.027
34 | D3DSM0 and related entries (UniProt P05107) | 0.97 ± 0.027 | 0.976 ± 0.057
35 | C9J2Y9 and related entries (UniProt P30876) | 1.04 ± 0.034 | 0.993 ± 0.077
36 | A6NMT1 and related entries (UniProt Q9BY41) | 1.01 ± 0.022 | 0.975 ± 0.042
37 | C9JKQ7 and related entries (UniProt P22102) | 1.01 ± 0.014 | 1.01 ± 0.017
38 | B4DDG0 and related entries (UniProt P41732+B4E171+B4DDG0) | 0.938 ± 0.021 | 0.967 ± 0.014
39 | B4DRN8 and related entries (UniProt Q5W0Z9) | 1.01 ± 0.021 | 0.9967 ± 0.005
40 | C9J6N9 and related entries (UniProt Q92890) | 1 ± 0.021 | 0.988 ± 0.016
41 | C9IY68 and related entries (UniProt Q9BQ75) | 0.996 ± 0.051 | 1 ± 0.044
42 | B1AJY7 and related entries (UniProt O75832) | 0.978 ± 0.043 | 0.998 ± 0.057
43 | UniProt B4DLN1 | 1.04 ± 0.053 | 0.981 ± 0.092
44 | B7Z863 and related entries (UniProt Q14BN4) | 0.988 ± 0.019 | 0.989 ± 0.057

Full records, quoted from the list. Order of values: NP40-soluble protein abundance (concentration: 0.1mM) | NP40-soluble protein abundance (concentration: 0.5mM)
C9J2Y9 and related entries (UniProt P30876) is listed as 1.04 ± 0.034 | 0.993 ± 0.077
UniProt A8MWY0 and related entries is listed as 1.04 ± 0.044 | 0.987 ± 0.012
